According to article PMC4933373, “Conformational Stability of the NH2-Terminal Propeptide of the Precursor of Pulmonary Surfactant Protein SP-B” (PLoS ONE, 2016):
No constants are given. Whether binding was seen depends on the method and setting.

Target: NH2-terminal propeptide of the precursor of pulmonary surfactant protein SP-B (recombinant human SP-BN) (human) (UniProt P07988)
Test: condition: only without added NaCl (5 mM Tris-HCl pH 7); 0.15 mg·mL^-1; AUC; sedimentation velocity, 0.15 mg/mL SP-BN in 5 mM Tris-HCl pH 7.0 without NaCl, 20°C, 48,000 rpm; only 6% of the loaded protein detected; both purified

B1: NH2-terminal propeptide of the precursor of pulmonary surfactant protein SP-B (recombinant human SP-BN) (domain or fragment, UniProt P07988 24-200, looked up)
chain: AWTTSSLACAQGPEFWCQSLEQALQCRALGHCLQEVWGHVGADDLCQECEDIVHILNKMAKEAIFQDTMRKFLEQECNVLPLKLLMPQCNQVLDDYFPLVIDYFQNQTDSNGICMHLGLCKSRQPEPEQEPGMSDPLPKPLRDPLPDPLLDKLVLPVLPGALQARPGPHTQDLSEQQ
notes: 177 amino acids, 19,902 Da from the composition; Not glycosylated (made in bacteria); also called N-terminal propeptide of proSP-B; the propeptide; source: E. coli, expressed as fusion MBP-SP-BN, purified after cleaving the fusion with factor Xa
binding: no binding
